Measurements taken from patent US20120040898A1, “PHARMACEUTICAL COMPOSITIONS” (TAISHO PHARMACEUTICAL CO., LTD, priority 2009, published 2012).

Test system: high-fat diet loaded mice with STZ-induced diabetes mellitus
Test: Combination treatment of compound A and glipizide in diabetic mice
Assay type: in vivo
Conditions: high-fat diet STZ diabetic ICR mice, non-fasting; single oral dose compound A 1 mg/kg, glipizide 10 mg/kg, alone or combined; up to 8 hours; mean ± standard error
Method: After 3 weeks a high-fat diet (D12492 of Research Diets, Inc.) feeding, ICR mice (CHARLES RIVER LABORATORIES JAPAN, INC.) were intraperitoneally administered streptozocin (SIGMA-ALDRICH JAPAN K.K.; hereinafter abbreviated as STZ) to induce diabetes. […] SIGMA-ALDRICH JAPAN K.K.), either alone or in combination. Blood was taken from the tail vein of each mouse at specified time intervals and plasma glucose levels were measured by GOD colorimetry with a self-testing glucose measuring instrument (Medisafe Mini GR-102; TERUMO CORPORATION, Japan).

Structure (SMILES): Cc1cnc(C(=O)NCCc2ccc(S(=O)(=O)NC(=O)NC3CCCCC3)cc2)cn1 [Glipizide, glipizide]
- Δ plasma glucose AUC: -222.3 ± 103.2 mg·h/dL
